No constants are given. Whether binding was seen depends on the method and setting. For some of these results: In cells and extracts the contact can be indirect. Some binding calls cover weakened binding; strength is not graded here. For some of these results: Tags and fused reporters may be left off the sequences shown.

Sequences of proteins named here, by UniProt entry; tags and fusion partners are left off.
UniProt Q6WWW4: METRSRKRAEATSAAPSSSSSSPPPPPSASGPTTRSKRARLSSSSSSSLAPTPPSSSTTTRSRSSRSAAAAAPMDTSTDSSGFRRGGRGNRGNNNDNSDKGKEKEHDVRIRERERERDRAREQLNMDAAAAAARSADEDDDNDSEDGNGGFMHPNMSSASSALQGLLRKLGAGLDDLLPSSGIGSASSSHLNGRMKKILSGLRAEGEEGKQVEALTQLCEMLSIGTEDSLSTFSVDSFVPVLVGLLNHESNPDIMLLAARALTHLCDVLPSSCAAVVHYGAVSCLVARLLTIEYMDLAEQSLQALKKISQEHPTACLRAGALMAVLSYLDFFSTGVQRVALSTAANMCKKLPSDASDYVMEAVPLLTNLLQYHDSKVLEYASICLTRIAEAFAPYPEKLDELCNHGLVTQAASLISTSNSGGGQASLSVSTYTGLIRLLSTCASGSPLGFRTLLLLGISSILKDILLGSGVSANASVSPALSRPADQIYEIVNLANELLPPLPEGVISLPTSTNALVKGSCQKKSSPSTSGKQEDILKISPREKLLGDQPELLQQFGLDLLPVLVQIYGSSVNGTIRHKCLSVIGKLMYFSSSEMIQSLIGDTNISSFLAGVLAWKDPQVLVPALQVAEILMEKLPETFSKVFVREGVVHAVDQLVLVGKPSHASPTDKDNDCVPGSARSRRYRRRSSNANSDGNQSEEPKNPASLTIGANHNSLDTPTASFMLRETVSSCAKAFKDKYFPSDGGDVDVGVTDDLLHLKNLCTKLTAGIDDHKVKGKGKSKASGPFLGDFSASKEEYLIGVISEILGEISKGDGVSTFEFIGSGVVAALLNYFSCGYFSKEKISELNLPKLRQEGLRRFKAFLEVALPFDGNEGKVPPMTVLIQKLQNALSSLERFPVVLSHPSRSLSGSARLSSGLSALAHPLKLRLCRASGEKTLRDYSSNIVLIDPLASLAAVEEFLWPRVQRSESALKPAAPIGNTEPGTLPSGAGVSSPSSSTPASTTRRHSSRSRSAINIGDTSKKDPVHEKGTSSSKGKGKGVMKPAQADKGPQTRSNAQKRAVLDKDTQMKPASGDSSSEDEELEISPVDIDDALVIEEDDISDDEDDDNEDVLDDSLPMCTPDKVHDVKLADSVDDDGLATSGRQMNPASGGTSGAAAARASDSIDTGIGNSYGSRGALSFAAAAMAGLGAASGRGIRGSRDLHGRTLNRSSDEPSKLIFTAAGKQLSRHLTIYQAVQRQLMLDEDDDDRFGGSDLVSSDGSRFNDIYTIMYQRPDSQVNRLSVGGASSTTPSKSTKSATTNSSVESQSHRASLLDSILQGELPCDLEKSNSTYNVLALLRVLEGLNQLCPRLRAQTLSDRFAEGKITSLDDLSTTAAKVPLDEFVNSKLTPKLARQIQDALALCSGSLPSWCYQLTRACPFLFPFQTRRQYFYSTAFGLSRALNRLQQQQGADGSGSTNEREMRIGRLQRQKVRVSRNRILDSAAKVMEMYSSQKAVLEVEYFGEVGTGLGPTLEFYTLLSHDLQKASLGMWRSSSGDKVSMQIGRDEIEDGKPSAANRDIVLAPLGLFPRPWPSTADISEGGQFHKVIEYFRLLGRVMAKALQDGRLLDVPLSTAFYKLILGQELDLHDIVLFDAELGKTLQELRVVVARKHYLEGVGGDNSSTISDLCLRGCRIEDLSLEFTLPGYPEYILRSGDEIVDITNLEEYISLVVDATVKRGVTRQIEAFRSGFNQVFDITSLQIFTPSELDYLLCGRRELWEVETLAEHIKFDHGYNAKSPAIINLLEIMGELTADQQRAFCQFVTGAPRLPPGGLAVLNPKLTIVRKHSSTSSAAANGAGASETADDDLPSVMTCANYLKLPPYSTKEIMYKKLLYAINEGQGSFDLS
UniProt Q6EVK6: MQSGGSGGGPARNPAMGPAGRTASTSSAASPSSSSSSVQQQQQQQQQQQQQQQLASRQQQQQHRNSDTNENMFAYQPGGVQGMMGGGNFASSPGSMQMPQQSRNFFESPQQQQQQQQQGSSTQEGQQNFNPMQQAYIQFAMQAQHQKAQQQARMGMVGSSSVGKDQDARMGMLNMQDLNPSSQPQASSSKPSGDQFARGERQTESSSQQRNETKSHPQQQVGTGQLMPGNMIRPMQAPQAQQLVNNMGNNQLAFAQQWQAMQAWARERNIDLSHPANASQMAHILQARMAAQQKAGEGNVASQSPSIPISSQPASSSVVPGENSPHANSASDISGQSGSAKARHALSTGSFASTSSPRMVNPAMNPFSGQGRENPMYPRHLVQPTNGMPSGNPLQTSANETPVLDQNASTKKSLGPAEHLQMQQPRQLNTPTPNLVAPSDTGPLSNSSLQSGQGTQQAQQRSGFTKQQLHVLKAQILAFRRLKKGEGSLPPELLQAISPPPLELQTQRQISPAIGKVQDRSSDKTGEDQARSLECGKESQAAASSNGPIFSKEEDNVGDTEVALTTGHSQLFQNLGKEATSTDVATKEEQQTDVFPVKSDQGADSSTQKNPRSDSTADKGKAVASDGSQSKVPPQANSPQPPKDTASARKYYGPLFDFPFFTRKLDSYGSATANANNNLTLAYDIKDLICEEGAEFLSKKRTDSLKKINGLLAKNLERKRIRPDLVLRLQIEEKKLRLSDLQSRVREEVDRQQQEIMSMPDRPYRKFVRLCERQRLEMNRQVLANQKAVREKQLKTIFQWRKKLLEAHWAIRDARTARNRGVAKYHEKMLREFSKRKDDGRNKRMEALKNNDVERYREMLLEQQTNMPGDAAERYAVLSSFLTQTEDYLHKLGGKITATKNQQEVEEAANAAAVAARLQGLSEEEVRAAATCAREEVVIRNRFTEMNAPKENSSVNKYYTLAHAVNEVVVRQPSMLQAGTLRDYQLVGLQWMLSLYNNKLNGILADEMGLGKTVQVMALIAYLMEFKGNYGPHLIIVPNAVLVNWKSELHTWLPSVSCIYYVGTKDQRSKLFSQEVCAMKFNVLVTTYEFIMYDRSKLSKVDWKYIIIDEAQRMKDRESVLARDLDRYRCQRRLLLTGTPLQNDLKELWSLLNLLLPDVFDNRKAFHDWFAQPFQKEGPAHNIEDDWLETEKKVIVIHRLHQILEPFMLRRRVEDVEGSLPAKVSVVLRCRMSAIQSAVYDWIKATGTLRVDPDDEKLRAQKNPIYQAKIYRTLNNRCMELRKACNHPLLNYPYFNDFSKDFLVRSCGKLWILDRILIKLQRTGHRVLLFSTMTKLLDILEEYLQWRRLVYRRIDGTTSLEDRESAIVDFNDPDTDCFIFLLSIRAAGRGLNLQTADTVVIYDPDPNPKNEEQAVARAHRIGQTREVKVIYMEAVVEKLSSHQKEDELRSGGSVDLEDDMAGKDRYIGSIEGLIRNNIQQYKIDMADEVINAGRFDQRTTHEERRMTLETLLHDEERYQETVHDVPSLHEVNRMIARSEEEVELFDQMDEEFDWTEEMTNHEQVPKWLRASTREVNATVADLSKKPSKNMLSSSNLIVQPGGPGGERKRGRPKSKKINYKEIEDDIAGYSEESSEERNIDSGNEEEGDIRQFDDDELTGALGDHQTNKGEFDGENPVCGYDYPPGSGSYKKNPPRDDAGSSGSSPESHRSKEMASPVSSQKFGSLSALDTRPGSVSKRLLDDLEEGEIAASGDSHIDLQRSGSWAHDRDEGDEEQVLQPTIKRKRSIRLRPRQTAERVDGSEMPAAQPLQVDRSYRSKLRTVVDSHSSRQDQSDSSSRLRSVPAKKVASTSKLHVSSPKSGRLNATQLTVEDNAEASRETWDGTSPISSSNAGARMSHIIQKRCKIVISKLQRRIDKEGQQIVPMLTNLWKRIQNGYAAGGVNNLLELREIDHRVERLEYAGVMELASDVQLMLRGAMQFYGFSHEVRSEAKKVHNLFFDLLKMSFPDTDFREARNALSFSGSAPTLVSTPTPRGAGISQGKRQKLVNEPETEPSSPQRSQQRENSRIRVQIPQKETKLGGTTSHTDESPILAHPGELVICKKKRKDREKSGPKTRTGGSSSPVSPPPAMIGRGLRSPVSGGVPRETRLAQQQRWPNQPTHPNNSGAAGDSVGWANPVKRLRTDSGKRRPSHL
UniProt Q42525: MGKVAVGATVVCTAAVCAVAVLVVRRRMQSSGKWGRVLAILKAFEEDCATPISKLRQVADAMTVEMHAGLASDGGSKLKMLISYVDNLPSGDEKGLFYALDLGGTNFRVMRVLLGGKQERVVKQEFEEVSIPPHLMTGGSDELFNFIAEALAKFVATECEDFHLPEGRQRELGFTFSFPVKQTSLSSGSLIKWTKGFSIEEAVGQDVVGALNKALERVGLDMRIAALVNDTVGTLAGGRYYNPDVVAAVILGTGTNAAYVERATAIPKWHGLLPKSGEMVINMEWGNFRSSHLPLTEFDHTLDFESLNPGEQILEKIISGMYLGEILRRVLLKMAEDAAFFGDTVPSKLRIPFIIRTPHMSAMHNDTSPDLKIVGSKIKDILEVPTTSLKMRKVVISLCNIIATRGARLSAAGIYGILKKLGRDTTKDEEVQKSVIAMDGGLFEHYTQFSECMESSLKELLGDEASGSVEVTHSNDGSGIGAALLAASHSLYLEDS

These results are taken from article PMC9354775.

One experiment addresses UPL3-GFPn (A. thaliana) (UniProt Q6WWW4). In words: split reporter; BiFC with YN (pCAMBIA1300-N1-YFPN) and YC (pCAMBIA1300-N1-YFPC) fusions co-delivered to Arabidopsis epidermal cells by Agrobacterium-mediated injection; signals in the nucleus; empty vector as negative control.
A further experiment concerns the target T1, UBP12-GFPn (A. thaliana) (UniProt Q9FPT1).
T1 sequence: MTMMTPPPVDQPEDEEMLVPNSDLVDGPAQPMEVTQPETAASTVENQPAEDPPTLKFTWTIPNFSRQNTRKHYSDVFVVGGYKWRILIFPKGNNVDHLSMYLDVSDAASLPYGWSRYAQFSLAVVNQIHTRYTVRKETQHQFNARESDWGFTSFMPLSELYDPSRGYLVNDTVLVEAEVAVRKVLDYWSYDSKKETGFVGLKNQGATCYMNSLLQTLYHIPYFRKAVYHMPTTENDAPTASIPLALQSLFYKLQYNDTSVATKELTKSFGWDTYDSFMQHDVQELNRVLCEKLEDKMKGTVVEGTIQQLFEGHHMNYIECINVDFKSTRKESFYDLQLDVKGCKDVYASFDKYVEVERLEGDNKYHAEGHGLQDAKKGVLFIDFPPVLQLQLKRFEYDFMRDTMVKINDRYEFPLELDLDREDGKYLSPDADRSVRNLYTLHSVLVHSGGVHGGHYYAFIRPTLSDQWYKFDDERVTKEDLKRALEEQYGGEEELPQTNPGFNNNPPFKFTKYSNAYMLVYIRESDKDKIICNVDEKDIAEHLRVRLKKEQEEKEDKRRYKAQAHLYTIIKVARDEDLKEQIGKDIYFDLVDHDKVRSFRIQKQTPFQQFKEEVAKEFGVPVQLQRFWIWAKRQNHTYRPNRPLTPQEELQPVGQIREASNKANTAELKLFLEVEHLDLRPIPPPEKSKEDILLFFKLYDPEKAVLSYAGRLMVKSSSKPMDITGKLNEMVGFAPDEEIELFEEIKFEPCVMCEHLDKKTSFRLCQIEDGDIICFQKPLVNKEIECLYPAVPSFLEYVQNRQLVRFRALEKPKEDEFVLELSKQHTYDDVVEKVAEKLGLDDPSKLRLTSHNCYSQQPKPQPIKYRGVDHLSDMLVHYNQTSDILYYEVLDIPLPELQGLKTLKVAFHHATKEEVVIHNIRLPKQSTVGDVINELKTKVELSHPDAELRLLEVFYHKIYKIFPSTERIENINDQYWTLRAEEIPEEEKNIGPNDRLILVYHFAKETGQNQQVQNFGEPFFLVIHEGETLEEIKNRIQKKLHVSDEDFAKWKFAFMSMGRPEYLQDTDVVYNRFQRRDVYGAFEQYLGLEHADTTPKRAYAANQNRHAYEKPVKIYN
Described as above.

A further experiment addresses T2, BD-UBP12 (A. thaliana) (UniProt Q9FPT1).
T2 sequence: T1 sequence
In words: two-hybrid; GAL4-based two-hybrid system 3 (Clontech); baits in pGBKT7-BD, preys in pGADT7-AD; growth on SD/-LTH or SD/-ALTH.

Experiment [1] addresses full-length UPL3 bait (A. thaliana) (UniProt Q6WWW4). The description is as above.

As to BRM-GFPc (from UniProt Q6EVK6 1-2193), the binding entry with UPL3-GFPn (A. thaliana) and in the experiment with UBP12-GFPn (A. thaliana) was “binds” each time.
Regarding “UPL3 (prey against BD-UBP12) (from UniProt Q6WWW4 1-1888) (enzyme)”, in the experiment with BD-UBP12 (A. thaliana), the binding result is “binds”.
Regarding “HXK1-GFPc (from UniProt Q42525 1-496) (enzyme)”, the values for the binding result with UPL3-GFPn (A. thaliana) and with UBP12-GFPn (A. thaliana) were “binds” and “no binding”, respectively.

B1: ubiquitin-conjugating enzyme 35 (UBC35) (two-hybrid prey) (enzyme, UniProt Q94A97 1-153)
chain: MANSNLPRRIIKETQRLLSEPAPGISASPSEDNMRYFNVMILGPTQSPYEGGVFKLELFLPEEYPMAAPKVRFLTKIYHPNIDKLGRICLDILKDKWSPALQIRTVLLSIQALLSAPNPDDPLSENIAKHWKSNEAEAVDTAKEWTRLYASGA
As for B1, the binding result in experiment [1] is “binds weakly”.

B2: UBP12 (two-hybrid prey) (enzyme, UniProt Q9FPT1 1-1116)
chain: T1 sequence
On to B2, for which the binding result in experiment [1] is listed as “binds”.

B3: UBP12-GFPc (enzyme, UniProt Q9FPT1 1-1116)
chain: T1 sequence
Consider B3, for which the binding result in the experiment with UPL3-GFPn (A. thaliana) was “binds”.

B4: PPC2-GFPc (enzyme, UniProt Q5GM68 1-963)
chain: MAARNLEKMASIDAQLRLLAPGKVSEDDKLIEYDALLLDRFLDILQDLHGEDVREFVQECYEVAADYDGNRNTEKLEELGNMLTSLDPGDSIVVTKSFSNMLSLANLAEEVQIAYRRRIKKLKKGDFADEASATTESDIEETLKRLLQLNKTPEEVFDALKNQTVDLVLTAHPTQSVRRSLLQKFGRIRDCLTQLYAKDITPDDKQELDEALQREIQAAFRTDEIRRTPPTPQDEMRAGMSYFHETIWKGVPKFLRRVDTALKNIGINERVPYNAPLIQFSSWMGGDRDGNPRVTPEVTRDVCLLARMMAANLYFSQIEDLMFEMSMWRCNEELRVRAERQRCAKRDAKHYIEFWKQIPANEPYRAILGDVRDKLYNTRERARQLLSSGVSDVPEDAVFTSVDQFLEPLELCYRSLCDCGDRPIADGSLLDFLRQVSTFGLALVKLDIRQESERHSDVLDAITTHLGIGSYKEWSEDKRQEWLLSELSGKRPLFGPDLPKTEEVADVLDTFKVISELPSDSFGAYIISMATAPSDVLAVELLQRECGITDPLRVVPLFEKLADLESAPAAVARLFSIEWYRNRINGKQEVMIGYSDSGKDAGRLSAAWQLYKTQEELVKVAKEYGVKLTMFHGRGGTVGRGGGPTHLAILSQPPDTIHGQLRVTVQGEVIEQSFGEEHLCFRTLQRFTAATLEHGMHPPVSPKPEWRVLMDEMAIIATEEYRSVVFKEPRFVEYFRLATPELEYGRMNIGSRPSKRKPSGGIESLRAIPWIFAWTQTRFHLPVWLGFGGAFKRVIQKDSKNLNMLKEMYNQWPFFRVTIDLVEMVFAKGDPGIAALYDRLLVSEELQPFGEQLRVNYQETRRLLLQVAGHKDILEGDPYLRQRLQLRDPYITTLNVCQAYTLKQIRDPSFHVKVRPHLSKDYMESSPAAELVKLNPKSEYAPGLEDTVILTMKGIAAGMQNTG
Consider B4, for which the binding result with UPL3-GFPn (A. thaliana) and in the experiment with UBP12-GFPn (A. thaliana) was “binds” throughout.
